According to article PMC8322665:
These are yes or no findings as the source states them, for the method shown. In cells and extracts the contact can be indirect. Some results given as binding are weak or reduced against the parent protein; the word gives no strength.

By UniProt entry, the sequences of proteins in these tests, tags left out. Residues count along the entry.
UniProt P60903: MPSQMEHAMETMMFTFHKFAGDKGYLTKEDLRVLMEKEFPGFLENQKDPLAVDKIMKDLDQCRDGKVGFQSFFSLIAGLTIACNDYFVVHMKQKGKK
UniProt P63165, residues 1-97: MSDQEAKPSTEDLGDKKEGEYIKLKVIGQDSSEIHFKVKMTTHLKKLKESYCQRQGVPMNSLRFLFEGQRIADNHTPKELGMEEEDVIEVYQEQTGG

Molecular target: S100A10 (human (endogenous in LoVo and HCT116)) (UniProt P60903)
Test: co-IP; total cell lysates of LoVo and HCT116 cells immunoprecipitated with anti-S100A10 and immunoblotted with anti-ubiquitin (linkage-specific K48), anti-SUMO1 or anti-SUMO2/3; control cells, PGCCs with daughter cells after CoCl2 treatment, and (SUMO1 only) cells after 5-Fu or Oxa treatment; all proteins endogenous

SUMO1 (from UniProt P63165 1-97)
binding: binds
